The list does not hold the whole screen: it is rich in T/C values a quarter to a half above the control, in often repeated tests (any T/C) and in doses without a T/C. Further doses and runs are listed elsewhere. T/C gives the treated animals as a percentage of the vehicle group. Some entries give survivors of the animals treated and no T/C: the source files T/C as zero there, which appears to mark a toxic dose or a test without result, not a measured value. Some doses without a T/C left all or most animals alive at the check, yet need not have been tolerated: the source hardly ever lists a survival T/C far under the control, and the zero likely stands for such cases as well. Survivors were counted at the toxicity check, usually on the fifth day, unless a day is given; later deaths do not show. Schedule codes are those of the source, read here as Q, the interval in days (D) or hours (H), X, the number of doses. Some schedule codes hold Z or #, which are not explained here. Some molecules as drawn cover several salts, stereoisomers or complexes of the source; a dose is that of the sample tested. Some entries were tested several times; their values stand side by side, smallest first. Counts like (3×) stand for listed records that agree. For survival time, this PubChem deposit counts one and a half times the control or more as active, and values a quarter to a half above the control carry no call in these data; other NCI protocols may use other cut-offs. Some T/C values are followed by the survivors on the day toxicity was checked, most often the fifth; without a count, all were alive then.
System: L1210 leukemia ip in BDF1 mice, survival T/C
Assay: NCI In Vivo Anticancer Drug Screen. Data for tumor model L1210 Leukemia (intraperitoneal) in B6D2F1 (BDF1) mice
Settings: T/C endpoint: mean survival time, higher T/C = longer survival
[1] = dose: 48.0 mg/kg/injection, schedule: Q01DX001 (ip), vehicle: other
[2] = dose: 400.0 mg/kg/injection, schedule: Q04DX003 (ip), vehicle: Klucel (hydroxypropylcellulose) (HPC)
[3] = dose: 200.0 mg/kg/injection, schedule: Q01DX009 (ip), vehicle: Klucel (hydroxypropylcellulose) (HPC)
[4] = dose: 400.0 mg/kg/injection, schedule: Q04DX002 (ip), vehicle: Klucel (hydroxypropylcellulose) (HPC)
[5] = dose: 100.0 mg/kg/injection, schedule: Q04DX003 (ip), vehicle: saline
[6] = dose: 400.0 mg/kg/injection, schedule: Q01DX001 (ip), vehicle: saline
[7] = dose: 400.0 mg/kg/injection, schedule: Q01DX009 (ip), vehicle: saline

**Q.** For `O=NN(CCF)C(=O)NC1CCS(=O)(=O)CC1`, which T/C (dose: 1.76 mg/kg/injection, schedule: Q01DX015 (ip), vehicle: other) is on record?
**A.** 135 % of control [9 of 10 alive]

**Q.** What about the T/C (dose: 2.35 mg/kg/injection, schedule: Q02DX008 (ip), vehicle: other) of the same compound?
**A.** 143 % of control [9 of 10 alive]

**Q.** And the T/C (dose: 2.5 mg/kg/injection, schedule: Q01DX001 (ip), vehicle: other)?
**A.** 142 % of control

**Q.** And the T/C (dose: 3.8 mg/kg/injection, schedule: Q## X032 (ip), vehicle: other)?
**A.** 140 % of control

**Q.** What about the T/C (dose: 4.0 mg/kg/injection, schedule: Q01DX001 (ip), vehicle: other) of the same compound?
**A.** 138 % of control

**Q.** What about the T/C (dose: 13.0 mg/kg/injection, schedule: Q## X032 (ip), vehicle: other) of the same compound?
**A.** 125 % of control [7 of 10 alive]

**Q.** And the T/C (dose: 21.0 mg/kg/injection, schedule: Q01DX001 (ip), vehicle: other, evaluated on day 46)?
**A.** 605 [9 of 10 alive] and 688 % of control

**Q.** What about the T/C (dose: 21.0 mg/kg/injection, schedule: Q01DX001 (ip), vehicle: other, run until all animals had died) of the same compound?
**A.** 346 and 361 % of control

**Q.** What about the T/C (dose: 32.0 mg/kg/injection, schedule: Q01DX001 (ip), vehicle: other, evaluated on day 46) of the same compound?
**A.** 490 and 588 % of control [8 of 10 alive]

**Q.** And the T/C (dose: 32.0 mg/kg/injection, schedule: Q01DX001 (ip), vehicle: other, run until all animals had died)?
**A.** 349 [5 of 6 alive] and 361 % of control [4 of 6 alive]

**Q.** What about the T/C [1] of the same compound?
**A.** 275 % of control [8 of 10 alive]

**Q.** And the survivor count [1]?
**A.** 2 of 6, 3 of 6, 6 of 10

**Q.** What about the survivor count (dose: 60.0 mg/kg/injection, schedule: Q01DX001 (ip), vehicle: other) of the same compound?
**A.** 2 of 10

**Q.** And the survivor count (dose: 60.0 mg/kg/injection, schedule: Q01DX001 (ip), vehicle: saline with Tween-80)?
**A.** 0 of 10 and 10 of 10

**Q.** And the survivor count (dose: 62.0 mg/kg/injection, schedule: Q01DX001 (ip), vehicle: other)?
**A.** 1 of 6

**Q.** And the survivor count (dose: 72.0 mg/kg/injection, schedule: Q01DX001 (ip), vehicle: other)?
**A.** 0 of 10

**Q.** And the survivor count (dose: 80.0 mg/kg/injection, schedule: Q01DX001 (ip), vehicle: other)?
**A.** 1 of 10

**Q.** What about the survivor count (dose: 93.0 mg/kg/injection, schedule: Q01DX001 (ip), vehicle: other) of the same compound?
**A.** 0 of 6

**Q.** What about the survivor count (dose: 120.0 mg/kg/injection, schedule: Q01DX001 (ip), vehicle: other) of the same compound?
**A.** 0 of 10

**Q.** What about the survivor count (dose: 187.0 mg/kg/injection, schedule: Q01DX001 (ip), vehicle: other) of the same compound?
**A.** 0 of 6

**Q.** What about the survivor count (dose: 250.0 mg/kg/injection, schedule: Q01DX001 (ip), vehicle: other) of the same compound?
**A.** 0 of 6

**Q.** And the survivor count (dose: 375.0 mg/kg/injection, schedule: Q01DX001 (ip), vehicle: other)?
**A.** 0 of 6

**Q.** And the survivor count (dose: 500.0 mg/kg/injection, schedule: Q01DX001 (ip), vehicle: other)?
**A.** 0 of 6

**Q.** For `Cc1c2cnccc2c(C)c2c1c1ccccc1n2C`, which T/C (dose: 150.0 mg/kg/injection, schedule: Q01DX Z (ip), vehicle: saline) is on record?
**A.** 134 % of control

**Q.** How did the survivor count [2] turn out when `O=C(OCS(=O)c1ccccc1)c1ccccc1` (stereo unspecified) was run?
**A.** 0 of 6

**Q.** Which results are given for `CCCCCCCCN(C)N=Nc1ccccc1C(=O)O`?
**A.** survivor count (dose: 50.0 mg/kg/injection, schedule: Q04DX003 (ip), vehicle: Klucel (hydroxypropylcellulose) (HPC)): 6 of 6; T/C (dose: 100.0 mg/kg/injection, schedule: Q01DX009 (ip), vehicle: Klucel (hydroxypropylcellulose) (HPC), evaluated on day 20): 117 % of control; T/C (dose: 100.0 mg/kg/injection, schedule: Q01DX009 (ip), vehicle: Klucel (hydroxypropylcellulose) (HPC), evaluated on day 30): 122, 127 [5 of 6 alive], 129 % of control; survivor count (dose: 100.0 mg/kg/injection, schedule: Q04DX003 (ip), vehicle: Klucel (hydroxypropylcellulose) (HPC)): 6 of 6; T/C [3]: 135 % of control; survivor count [3]: 6 of 6; survivor count (dose: 200.0 mg/kg/injection, schedule: Q04DX003 (ip), vehicle: Klucel (hydroxypropylcellulose) (HPC)): 6 of 6; survivor count (dose: 300.0 mg/kg/injection, schedule: Q01DX009 (ip), vehicle: Klucel (hydroxypropylcellulose) (HPC)): 2 of 6; survivor count [2]: 6 of 6

**Q.** With `O=Nc1ccc(O)c(Cl)c1` as the compound, how does the survivor count (dose: 400.0 mg/kg/injection, schedule: Q01DX001 (ip), vehicle: Klucel (hydroxypropylcellulose) (HPC)) read?
**A.** 3 of 3

**Q.** With `N=C(N)N=Nc1c(O)[nH]c2ccccc12` as the compound, how does the survivor count (dose: 300.0 mg/kg/injection, schedule: Q01DX Z (oral), vehicle: carboxymethylcellulose (CMC)) read?
**A.** 6 of 6

**Q.** What about the survivor count (dose: 480.0 mg/kg/injection, schedule: Q01DX Z (oral), vehicle: other) of the same compound?
**A.** 0 of 6

**Q.** What about the survivor count (dose: 960.0 mg/kg/injection, schedule: Q01DX Z (oral), vehicle: other) of the same compound?
**A.** 0 of 6

**Q.** `N#Cc1cc([N+](=O)[O-])c(Cl)c([N+](=O)[O-])c1Cl` was tested. Which survivor count (dose: 25.0 mg/kg/injection, schedule: Q04DX003 (ip), vehicle: saline with Tween-80) did it give?
**A.** 0 of 6

**Q.** And the survivor count (dose: 100.0 mg/kg/injection, schedule: Q04DX003 (ip), vehicle: saline with Tween-80)?
**A.** 1 of 6

**Q.** What about the survivor count (dose: 200.0 mg/kg/injection, schedule: Q04DX003 (ip), vehicle: saline with Tween-80) of the same compound?
**A.** 0 of 6

**Q.** And the survivor count (dose: 400.0 mg/kg/injection, schedule: Q04DX003 (ip), vehicle: saline with Tween-80)?
**A.** 0 of 6

**Q.** For `Cc1noc(-c2ccc([N+](=O)[O-])o2)n1`, which survivor count [4] is on record?
**A.** 0 of 3

**Q.** With `CC(C)[P+](c1ccccc1)(c1ccccc1)c1ccccc1` as the compound, how does the survivor count (dose: 32.5 mg/kg/injection, schedule: Q01DX009 (ip), vehicle: saline) read?
**A.** 4 of 6

**Q.** What about the survivor count (dose: 65.0 mg/kg/injection, schedule: Q01DX009 (ip), vehicle: saline) of the same compound?
**A.** 3 of 6

**Q.** What about the survivor count (dose: 80.0 mg/kg/injection, schedule: Q01DX001 (ip), vehicle: saline) of the same compound?
**A.** 3 of 6

**Q.** And the survivor count (dose: 100.0 mg/kg/injection, schedule: Q01DX001 (ip), vehicle: saline)?
**A.** 2 of 6

**Q.** And the T/C [5]?
**A.** 129 % of control [5 of 6 alive]

**Q.** And the survivor count [5]?
**A.** 0 of 6

**Q.** And the survivor count (dose: 150.0 mg/kg/injection, schedule: Q04DX003 (ip), vehicle: saline)?
**A.** 0 of 6

**Q.** And the survivor count (dose: 200.0 mg/kg/injection, schedule: Q01DX001 (ip), vehicle: saline)?
**A.** 0 of 6 (2×)

**Q.** What about the survivor count [6] of the same compound?
**A.** 0 of 6 (2×)

**Q.** For `Cc1cccc(OCCOC(=O)Nc2cccc(C(F)(F)F)c2)c1`, which T/C [7] is on record?
**A.** 138 % of control

**Q.** For `CCOC(=O)c1cccnc1NC(=O)c1ccccc1`, which T/C [4] is on record?
**A.** 125 % of control

**Q.** What about the survivor count [4] of the same compound?
**A.** 3 of 3

**Q.** Which results are given for `CCOC(=O)C1CSCC1=O` (stereo unspecified)?
**A.** survivor count (dose: 200.0 mg/kg/injection, schedule: Q01DX009 (ip), vehicle: water): 6 of 6; survivor count (dose: 400.0 mg/kg/injection, schedule: Q01DX009 (ip), vehicle: water): 2 of 6

**Q.** Which results are given for `COc1ccc(OC)c(C(Nc2ccc3cn[nH]c3c2)P(=O)(c2ccccc2)c2ccccc2)c1` (stereo unspecified)?
**A.** survivor count (dose: 100.0 mg/kg/injection, schedule: Q01DX009 (ip), vehicle: saline with Tween-80): 3 of 3; survivor count (dose: 200.0 mg/kg/injection, schedule: Q01DX009 (ip), vehicle: saline with Tween-80): 3 of 3; survivor count (dose: 400.0 mg/kg/injection, schedule: Q01DX009 (ip), vehicle: saline with Tween-80): 3 of 3; survivor count (dose: 400.0 mg/kg/injection, schedule: Q04DX002 (ip), vehicle: saline with Tween-80): 3 of 3

**Q.** Which survivor count [6] does the source give for `O=S(=O)(c1ccc(NC(=S)Oc2ccccc2)cc1)c1ccc(NC(=S)Oc2ccccc2)cc1` here?
**A.** 1 of 4

**Q.** With `CCN(CC)CCOc1ccccc1OC` as the compound, how does the survivor count (dose: 100.0 mg/kg/injection, schedule: Q01DX009 (ip), vehicle: saline) read?
**A.** 0 of 6

**Q.** And the survivor count (dose: 200.0 mg/kg/injection, schedule: Q01DX009 (ip), vehicle: saline)?
**A.** 0 of 6

**Q.** And the survivor count [6]?
**A.** 0 of 6

**Q.** What about the survivor count [7] of the same compound?
**A.** 0 of 6
